Laboratory results published in PubChem BioAssay AID250 (DTP/NCI, 2004).
The list shows only some results of the screen, not a fair sample: it covers a few groups of compounds. Other doses and runs of a compound may be missing. T/C: endpoint of the treated group in % of that of the vehicle group. For survival time, this PubChem deposit counts one and a half times the control or more as active, and values a quarter to a half above the control carry no call in these data; other NCI protocols may use other cut-offs. Some T/C values are marked as having no survivor count here; that says nothing about deaths at the dose. Schedules are NCI's codes, read here as Q, the interval in days (D) or hours (H), X, the number of doses. Some schedules carry Z or #; the key to these is not given. Brackets with × count equal records among those shown. Some entries were tested several times; the results are listed from low to high.

Tests used:
[1] = system: BDF1 mice, L1210 leukemia sc, survival T/C; experiment: NCI In Vivo Anticancer Drug Screen. Data for tumor model L1210 Leukemia (subcutaneous) in B6D2F1 (BDF1) mice; settings: T/C endpoint: median survival time, schedule: Q01DX Z (sc), higher T/C = longer survival
Protocol: (§1) The antitumor activity of compounds was measured in mice bearing transplantable tumors. Survival or tumor size were measured and the results are expressed as the measurement made in the treated group (T) divided by the measurement made in the vehicle treated control group (C). The tumor model used in this assay is L1210 Leukemia (subcutaneous) in B6D2F1 (BDF1) mice

[2] = system: BDF1 mice, L1210 leukemia sc; experiment: as above; settings: T/C endpoint: median survival time, schedule: Q01DX Z (sc), higher T/C = longer survival
Protocol: as §1

[3] = dose: 1.8 mg/kg/injection, vehicle: saline
[4] = dose: 3.0 mg/kg/injection, vehicle: saline
[5] = dose: 5.0 mg/kg/injection, vehicle: saline
[6] = dose: 8.4 mg/kg/injection, vehicle: saline

## Cc1cc2nc(CN(CCCl)CCCl)[nH]c2cc1C
[1]; dose: 14.0 mg/kg/injection, vehicle: methylcellulose (MC)
  T/C: 100 % of control [survivor count not shown]
[1]; dose: 23.0 mg/kg/injection, vehicle: methylcellulose (MC)
  T/C: 100 % of control [survivor count not shown]
[1]; dose: 65.0 mg/kg/injection, vehicle: methylcellulose (MC)
  T/C: 155 % of control [survivor count not shown]
[1]; dose: 108.0 mg/kg/injection, vehicle: methylcellulose (MC)
  T/C: 155 % of control [survivor count not shown]
[2]; dose: 39.0 mg/kg/injection, vehicle: methylcellulose (MC)
  T/C: 133 % of control [survivor count not shown]

## ClCCN(CCCl)CCCN(CCCl)CCCl
[1]; dose: 1.08 mg/kg/injection, vehicle: saline
  T/C: 105 % of control [survivor count not shown]
[1]; [3]
  T/C: 110 % of control [survivor count not shown]
[1]; [4]
  T/C: 110 % of control [survivor count not shown] (2×)
[1]; [5]
  T/C: 120 % of control [survivor count not shown]
[2]; [5]
  T/C: 126 % of control [survivor count not shown]
[2]; [6]
  T/C: 130 [survivor count not shown] and 136 % of control [survivor count not shown]

## ClCCNCCCNCCCl
[1]; [5]
  T/C: 94 % of control [survivor count not shown]
[1]; dose: 10.0 mg/kg/injection, vehicle: saline
  T/C: 100 [survivor count not shown] and 112 % of control [survivor count not shown]
[1]; dose: 16.8 mg/kg/injection, vehicle: saline
  T/C: 112 % of control [survivor count not shown]
[1]; dose: 20.0 mg/kg/injection, vehicle: saline
  T/C: 100 % of control [survivor count not shown]
[1]; dose: 28.0 mg/kg/injection, vehicle: saline
  T/C: 150 % of control [survivor count not shown]
[1]; dose: 40.0 mg/kg/injection, vehicle: saline
  T/C: 100 % of control [survivor count not shown]
[1]; dose: 46.7 mg/kg/injection, vehicle: saline
  T/C: 168 % of control [survivor count not shown]
[1]; dose: 77.8 mg/kg/injection, vehicle: saline
  T/C: 156 % of control [survivor count not shown]
[1]; dose: 80.0 mg/kg/injection, vehicle: saline
  T/C: 150 % of control [survivor count not shown]
[2]; dose: 130.0 mg/kg/injection, vehicle: saline
  T/C: 125 % of control [survivor count not shown]

## COCc1c(CN(CCCl)CCCl)cnc(C)c1O
[1]; [3]
  T/C: 90 % of control [survivor count not shown]
[1]; [4]
  T/C: 90 % of control [survivor count not shown]
[1]; [5]
  T/C: 95 % of control [survivor count not shown]
[1]; [6]
  T/C: 100 % of control [survivor count not shown]
[1]; dose: 14.0 mg/kg/injection, vehicle: saline
  T/C: 109 % of control [survivor count not shown]
